Measured data: PubChem BioAssay AID686943 (Drosophila RNAi Screening Center, 2013)
Screen: 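Fly genes whose loss alters ERK activation after insulin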 (primary screen). Cell system: Drosophila S2R+ haemocyte-like cells expressing YFP-tagged ERK (Rolled). Reagents: long dsRNA against Drosophila genes. Challenge: insulin stimulation versus unstimulated cells; dose and duration not given. Read-out: 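Antibody staining for doubly phosphorylated ERK divided by ERK-YFP signal, as plate z-scores, in insulin-treated and untreated cells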. Reading the numbers: replicate 1, z-score of dpERK with insulin: higher = more active ERK per ERK-YFP after insulin.
In all, the deposit lists about 23,000 reagents; below is a random part of those that have a named target and a result. 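Extra replicates exist only for a retested subset of genes; insulin dose and duration not given; both raised and lowered dpERK matter.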 A plus sign joins genes that one reagent is predicted to hit. Not all columns of the deposit are shown. No sequences are given here. Not stated in the record: the amount of reagent, the time to read-out.

For CG12990 [DRSC19510] the deposit lists replicate 1, z-score of dpERK with insulin 0.4.
After knock-down of CG31156 [DRSC15753] the results were replicate 1, z-score of dpERK with insulin 0.37.
Against CG31156 [DRSC15755], the values are replicate 1, z-score of dpERK with insulin -0.28.
Depletion of CG6294 + CG6299 [DRSC19980] resulted in: replicate 1, z-score of dpERK with insulin -0.56.
Against AstC [DRSC02403], the entry reads replicate 1, z-score of dpERK with insulin 0.52.
With knock-down of Nepl11 [DRSC12333], the screen gave replicate 1, z-score of dpERK with insulin 0.46.
Against CG14183 [DRSC10182], the entry reads replicate 1, z-score of dpERK with insulin 0.
CG4830 [DRSC15657] gave replicate 1, z-score of dpERK with insulin -0.16.
After knock-down of CG2017 [DRSC12293], the record shows replicate 1, z-score of dpERK with insulin -1.02.
For CG13003 [DRSC19522], the entry reads replicate 1, z-score of dpERK with insulin -0.82.
CG8152 [DRSC07083] showed replicate 1, z-score of dpERK with insulin -0.7.
After knock-down of CCDC53 [DRSC03056] the results were replicate 1, z-score of dpERK with insulin -0.01.
CG31636 [DRSC02276] showed replicate 1, z-score of dpERK with insulin -0.67.
After knock-down of rhea [DRSC11300], the record shows replicate 1, z-score of dpERK with insulin -0.02.
Act79B [DRSC11604] gave replicate 1, z-score of dpERK with insulin -3.29.
lncRNA:CR32385 [DRSC22966] showed replicate 1, z-score of dpERK with insulin -0.24.
Against CG13022 [DRSC09902], the values are replicate 1, z-score of dpERK with insulin 0.43.
RpL22-like [DRSC04582] showed replicate 1, z-score of dpERK with insulin 1.
Depletion of CG32588 [DRSC22285] gave: replicate 1, z-score of dpERK with insulin 0.18.
With knock-down of aqz + CG9837 [DRSC12709] the results were replicate 1, z-score of dpERK with insulin 1.58.
Knock-down of Syt7 [DRSC17130] gave: replicate 1, z-score of dpERK with insulin 0.24.
Syt7 [DRSC17159] gave replicate 1, z-score of dpERK with insulin 0.4.
CG3168 [DRSC18287] scored replicate 1, z-score of dpERK with insulin -0.17.
CG11857 [DRSC14411] showed replicate 1, z-score of dpERK with insulin 0.55.
Depletion of CG11226 [DRSC11639] resulted in: replicate 1, z-score of dpERK with insulin 0.43.
CG15708 [DRSC06579] scored replicate 1, z-score of dpERK with insulin -0.77.
Knock-down of CG10353 [DRSC19354] resulted in: replicate 1, z-score of dpERK with insulin -0.87.
Against CG10513 [DRSC14248], the values are replicate 1, z-score of dpERK with insulin 0.01.
After knock-down of CG3906 [DRSC04431], the screen gave replicate 1, z-score of dpERK with insulin 0.38.
Against Irk1 [DRSC14686], the values are replicate 1, z-score of dpERK with insulin 0.21.
For Irk1 [DRSC16106], the values are replicate 1, z-score of dpERK with insulin -1.11.
For Dek [DRSC07418], the values are replicate 1, z-score of dpERK with insulin -1.38.
With knock-down of Ir48b [DRSC06320], the record shows replicate 1, z-score of dpERK with insulin -0.75.
With knock-down of CG32793 [DRSC18145] the results were replicate 1, z-score of dpERK with insulin 0.93.
Depletion of CG32793 [DRSC18194] resulted in: replicate 1, z-score of dpERK with insulin 0.35.
lwr [DRSC00828] scored replicate 1, z-score of dpERK with insulin -1.02.
Knock-down of CG10137 [DRSC02014] gave: replicate 1, z-score of dpERK with insulin 0.33.
CG10137 [DRSC02015] scored replicate 1, z-score of dpERK with insulin 0.68.
conu [DRSC07810] gave replicate 1, z-score of dpERK with insulin 1.1.
Silencing of Osi21 [DRSC02408] gave: replicate 1, z-score of dpERK with insulin -0.21.

Looked up above.
CG10353 [DRSC19354], replicate 1, z-score of dpERK with insulin → -0.87
CG13022 [DRSC09902], replicate 1, z-score of dpERK with insulin: 0.43
